The experiment has as its target αIIbβ3 integrin (mouse (endogenous in platelets)) (UniProt Q9QUM0+O54890). As to the kind of experiment: cross-linking; washed mouse platelets (wild-type or SHIP1-deficient) in suspension with integrilin 40 µg/mL, resting or stimulated with thrombin 0.5 IU/mL at 37 °C, in some samples after Y27632 or blebbistatin; 0.25 mM Sulfo-EGS (linker 1.6 nm) for 15 min at room temperature; lysates immunoblotted for β3, multimers quantified. (In general: In western blotting, separated proteins are transferred to a membrane and probed.)

By UniProt entry, the sequences of proteins in these tests, tags left out. Where a name states a change or a piece, a line headed by the entry shows the natural chain unless it says otherwise.
UniProt Q9QUM0: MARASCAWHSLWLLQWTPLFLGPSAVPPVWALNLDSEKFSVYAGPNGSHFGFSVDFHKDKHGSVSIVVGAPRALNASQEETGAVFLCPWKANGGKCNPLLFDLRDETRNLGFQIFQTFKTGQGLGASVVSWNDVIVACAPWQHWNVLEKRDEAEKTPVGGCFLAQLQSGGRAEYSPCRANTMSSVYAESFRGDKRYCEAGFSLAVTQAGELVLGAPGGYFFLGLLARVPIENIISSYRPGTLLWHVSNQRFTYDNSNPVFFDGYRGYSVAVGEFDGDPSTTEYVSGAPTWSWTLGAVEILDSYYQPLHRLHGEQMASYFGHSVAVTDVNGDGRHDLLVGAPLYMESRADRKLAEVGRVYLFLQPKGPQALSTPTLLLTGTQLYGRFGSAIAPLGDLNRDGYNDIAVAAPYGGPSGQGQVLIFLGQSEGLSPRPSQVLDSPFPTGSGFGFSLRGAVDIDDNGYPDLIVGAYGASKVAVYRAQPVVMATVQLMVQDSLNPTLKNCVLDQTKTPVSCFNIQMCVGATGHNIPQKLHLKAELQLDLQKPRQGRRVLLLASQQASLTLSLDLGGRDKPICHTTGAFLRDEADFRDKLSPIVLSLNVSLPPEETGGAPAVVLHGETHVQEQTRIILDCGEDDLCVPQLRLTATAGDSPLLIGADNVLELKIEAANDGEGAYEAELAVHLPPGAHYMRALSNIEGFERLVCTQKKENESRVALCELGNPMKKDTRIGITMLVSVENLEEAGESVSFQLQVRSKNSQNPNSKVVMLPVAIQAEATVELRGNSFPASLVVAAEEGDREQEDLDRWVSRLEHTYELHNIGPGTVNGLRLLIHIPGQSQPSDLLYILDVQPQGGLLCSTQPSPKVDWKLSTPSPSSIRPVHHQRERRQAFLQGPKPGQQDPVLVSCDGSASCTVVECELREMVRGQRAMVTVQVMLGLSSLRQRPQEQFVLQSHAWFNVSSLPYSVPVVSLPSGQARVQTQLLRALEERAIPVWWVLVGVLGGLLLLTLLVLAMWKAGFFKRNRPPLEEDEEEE
UniProt O54890: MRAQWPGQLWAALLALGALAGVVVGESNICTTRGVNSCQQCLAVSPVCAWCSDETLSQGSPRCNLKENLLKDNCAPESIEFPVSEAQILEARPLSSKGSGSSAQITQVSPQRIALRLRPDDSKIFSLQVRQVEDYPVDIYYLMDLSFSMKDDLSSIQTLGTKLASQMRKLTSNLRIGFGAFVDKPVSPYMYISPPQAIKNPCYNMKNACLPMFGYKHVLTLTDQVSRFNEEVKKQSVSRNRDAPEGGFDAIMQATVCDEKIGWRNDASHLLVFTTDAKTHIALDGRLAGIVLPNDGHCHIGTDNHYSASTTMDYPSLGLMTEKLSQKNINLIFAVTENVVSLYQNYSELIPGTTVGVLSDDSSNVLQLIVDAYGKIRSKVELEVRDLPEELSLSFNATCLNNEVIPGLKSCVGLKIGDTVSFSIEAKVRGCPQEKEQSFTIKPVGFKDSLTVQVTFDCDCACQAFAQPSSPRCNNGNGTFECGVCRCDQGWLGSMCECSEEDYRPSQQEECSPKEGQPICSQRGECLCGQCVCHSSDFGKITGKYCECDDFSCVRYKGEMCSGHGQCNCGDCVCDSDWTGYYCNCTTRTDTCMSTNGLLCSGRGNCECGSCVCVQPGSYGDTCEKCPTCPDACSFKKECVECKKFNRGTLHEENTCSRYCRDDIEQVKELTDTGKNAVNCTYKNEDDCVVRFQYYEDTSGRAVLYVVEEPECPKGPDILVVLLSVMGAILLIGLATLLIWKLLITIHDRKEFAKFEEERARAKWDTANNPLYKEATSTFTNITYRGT

These are yes or no findings as the source states them, for the method shown. In cells and extracts the contact can be indirect. Some binding calls cover weakened binding; strength is not graded here.

As to “αIIbβ3 integrin (from UniProt Q9QUM0 32-1033; O54890 26-787) (complex)”, the binding result is “binds”.

(Values after article PMC9860818.)
